Laboratory results: article PMC10558580
Results are given in words; binding and its absence hold for the method and conditions named. Binding seen in cells or lysates may run through a third protein. Some binding calls cover weakened binding; strength is not graded here.

Biological target: filamin A (human (endogenous in THP1)), P21333
Assay: co-IP; lysates of cells overexpressing CaSR (50 mM Tris HCl pH 7.4, 150 mM NaCl, 10% glycerol, 0.5% NP-40); 500 ug protein with 2 ug anti-FLNA antibody 4 h at 4 °C, Dynabeads Protein G overnight at 4 °C, washed with ice cold RIPA buffer; immunoblot for CaSR and FLNA
Conditions: remark: other sources report otherwise

binding: binds
B1: calcium-sensing receptor, P41180 20-1078 (receptor)
chain: YGPDQRAQKKGDIILGGLFPIHFGVAAKDQDLKSRPESVECIRYNFRGFRWLQAMIFAIEEINSSPALLPNLTLGYRIFDTCNTVSKALEATLSFVAQNKIDSLNLDEFCNCSEHIPSTIAVVGATGSGVSTAVANLLGLFYIPQVSYASSSRLLSNKNQFKSFLRTIPNDEHQATAMADIIEYFRWNWVGTIAADDDYGRPGIEKFREEAEERDICIDFSELISQYSDEEEIQHVVEVIQNSTAKVIVVFSSGPDLEPLIKEIVRRNITGKIWLASEAWASSSLIAMPQYFHVVGGTIGFALKAGQIPGFREFLKKVHPRKSVHNGFAKEFWEETFNCHLQEGAKGPLPVDTFLRGHEESGDRFSNSSTAFRPLCTGDENISSVETPYIDYTHLRISYNVYLAVYSIAHALQDIYTCLPGRGLFTNGSCADIKKVEAWQVLKHLRHLNFTNNMGEQVTFDECGDLVGNYSIINWHLSPEDGSIVFKEVGYYNVYAKKGERLFINEEKILWSGFSREVPFSNCSRDCLAGTRKGIIEGEPTCCFECVECPDGEYSDETDASACNKCPDDFWSNENHTSCIAKEIEFLSWTEPFGIALTLFAVLGIFLTAFVLGVFIKFRNTPIVKATNRELSYLLLFSLLCCFSSSLFFIGEPQDWTCRLRQPAFGISFVLCISCILVKTNRVLLVFEAKIPTSFHRKWWGLNLQFLLVFLCTFMQIVICVIWLYTAPPSSYRNQELEDEIIFITCHEGSLMALGFLIGYTCLLAAICFFFAFKSRKLPENFNEAKFITFSMLIFFIVWISFIPAYASTYGKFVSAVEVIAILAASFGLLACIFFNKIYIILFKPSRNTIEEVRCSTAAHAFKVAARATLRRSNVSRKRSSSLGGSTGSTPSSSISSKSNSEDPFPQPERQKQQQPLALTQQEQQQQPLTLPQQQRSQQQPRCKQKVIFGSGTVTFSLSFDEPQKNAMAHRNSTHQNSLEAQKSSDTLTRHEPLLPLQCGETDLDLTVQETGLQGPVGGDQRPEVEDPEELSPALVVSSSQSFVISGGGSTVTENVVNS
